Reference: PubChem BioAssay AID1671190 (National Center for Advancing Translational Sciences (NCATS), 2021)
Among all 580,000 compounds or so, about 6,100 (1.1%) were called active. Inconclusive results, whose numbers are uncertain, are shown with a selection of clear calls. The call rests on the fitted dose curve; in most records, active means well fitted inhibition curve with a large enough effect; inconclusive means small, poorly fitted or top-dose-only effect, or another doubt; inactive means no such curve, though single readings can be large or run the other way. A potency beside an inconclusive call is a rough fit, not a confirmed value.

Amino acid sequences for entries named in this document (tags omitted). A change or cut given only in a name is not applied to a line headed by its entry.
UniProt P18054: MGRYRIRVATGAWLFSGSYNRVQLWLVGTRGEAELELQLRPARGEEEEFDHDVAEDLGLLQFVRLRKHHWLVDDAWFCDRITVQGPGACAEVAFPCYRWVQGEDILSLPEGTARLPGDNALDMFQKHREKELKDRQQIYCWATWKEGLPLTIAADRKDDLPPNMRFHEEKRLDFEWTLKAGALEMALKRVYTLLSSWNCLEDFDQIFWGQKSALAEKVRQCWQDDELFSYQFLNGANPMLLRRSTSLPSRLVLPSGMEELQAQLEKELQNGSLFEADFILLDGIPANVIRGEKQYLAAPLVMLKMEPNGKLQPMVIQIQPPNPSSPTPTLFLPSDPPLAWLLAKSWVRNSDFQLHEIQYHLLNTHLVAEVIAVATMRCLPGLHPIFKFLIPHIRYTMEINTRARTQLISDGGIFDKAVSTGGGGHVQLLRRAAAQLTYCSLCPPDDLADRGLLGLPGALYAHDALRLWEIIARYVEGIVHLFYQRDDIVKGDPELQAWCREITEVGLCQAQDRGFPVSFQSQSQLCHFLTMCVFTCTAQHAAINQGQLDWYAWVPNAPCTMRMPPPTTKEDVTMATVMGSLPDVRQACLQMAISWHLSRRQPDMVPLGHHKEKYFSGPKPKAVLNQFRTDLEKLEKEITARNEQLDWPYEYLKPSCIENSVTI

biological target: Polyunsaturated fatty acid lipoxygenase ALOX12 (Homo sapiens) (UniProt P18054); assay: Primary qHTS assay for inhibitors of human arachidonate 12S-lipoxygenase (ALOX12): Round 2; conditions: purified 12hLO, xylenol orange hydroperoxide absorbance; series mostly up to 108 µM
Procedure, shortened: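 Purified human 12hLO (150 nM final) in 25 mM Hepes, 0.01% Triton X-100, pH 7.0 was preincubated 15 min at room temperature with compound. Then 40 uM arachidonic acid was added, 30 min. Hydroperoxide was read by Fe-XO absorbance ratio 573/405 nm.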
Potency means the concentration at half of the fitted maximal effect.

With `Cc1ccc(S(=O)(=O)NN=Cc2ccccc2Cl)cc1` as the molecule, how does the Potency read?
Its Potency is inconclusive: 50.1 µM [inhibitor, partial curve, poor fit].

How did the Potency turn out when `CC(C)(C)c1ccc(C(=O)NCC2CCCN2S(=O)(=O)c2ccccc2)cc1` (stereo unspecified) was run?
The Potency was “inactive”.

Which Potency does the source give for `Cc1cc(NC(=O)C2CCN(C(=O)c3ccco3)CC2)ccc1Br` here?
Its Potency is inconclusive: 79.4 µM [inhibitor, partial curve, poor fit].

With `Cc1ccc2c(c1)-c1[nH]c(=S)ncc1CS2` as the molecule, how does the Potency read?
The Potency was active: 31.6 µM.

With `CC1(C)CN(Cc2cc(C#N)ccc2F)CCO1` as the molecule, how does the Potency read?
Its Potency is “inactive”.

Which Potency does the source give for `Cc1nn(S(=O)(=O)c2ccccc2)c(C)c1S(=O)(=O)N1CCOCC1` here?
Its Potency is inconclusive: 44.7 µM [inhibitor, partial curve, poor fit].

For `CC(C)(NO)/C(=N\O)c1ccccc1`, which Potency is on record?
The Potency was inconclusive: 3.55 µM [inhibitor, full curve, poor fit].

Which Potency does the source give for `Cc1ccc(OCCCCNC(C)c2ccccc2)c(C)c1` (stereo unspecified) here?
The Potency was active: 4.47 µM.

With `CCOc1ccccc1C(=S)NC1CCCCC1` as the molecule, how does the Potency read?
The Potency was inconclusive: 79.4 µM [inhibitor, partial curve, poor fit].

For `CCOc1ccccc1NC(=S)Nc1ccc(S(N)(=O)=O)cc1`, which Potency is on record?
The Potency was inconclusive: 50.1 µM [inhibitor, single point].

Which Potency does the source give for `Fc1cccc(NC(=S)NCc2cccs2)c1` here?
Its Potency is inconclusive: 15.8 µM [inhibitor, partial curve, poor fit].

With `CN(C)S(=O)(=O)c1ccc(N2CCCC2)c(C(=O)NNC(=O)c2ccc(F)cc2)c1` as the molecule, how does the Potency read?
The Potency was “inactive”.

Which Potency does the source give for `Cc1cc(NS(=O)(=O)c2ccc(NC(=O)C(F)(F)F)cc2)nc(C)n1` here?
Its Potency is inconclusive: 11.2 µM [inhibitor, full curve].

Which Potency does the source give for `CCN(CC)C(=O)C(C)[C@@H]1CC[C@@]2(C)Cc3sc(NC(=O)C4CC4)nc3[C@@H](C)[C@@H]2[C@H]1O` (stereo partly specified) here?
The Potency was “inactive”.

For `O=C(O)CCn1cc(C(C(=O)O)N2CCN(Cc3cccnc3)CC2)c2ccc(F)cc21` (stereo unspecified), which Potency is on record?
The Potency was inconclusive: 7.94 µM [inhibitor, full curve, poor fit].

Which Potency does the source give for `CCOC(=O)n1c(=O)n(Cc2ccc(Cl)c(Cl)c2)c2ccccc21` here?
Its Potency is inconclusive: 89.1 µM [inhibitor, partial curve, poor fit].

Which Potency does the source give for `CCN(CC)CCCNCc1ccccc1` here?
The Potency was inconclusive: 31.6 µM [inhibitor, full curve, poor fit].

For `O=C(C1CCC(CNS(=O)(=O)c2cccs2)CC1)N1CCCCC1` (stereo unspecified), which Potency is on record?
Its Potency is inconclusive: 35.5 µM [inhibitor, single point].

For `O=C(Nc1ccc2c(c1)OCO2)N1CCCc2ccccc21`, which Potency is on record?
The Potency was inconclusive: 3.55 µM [inhibitor, full curve, poor fit].

`O=[N+]([O-])c1ccc(COc2ccc(-c3[nH]ncc3-c3ccc(Cl)cc3)c(O)c2)cc1` was tested. Which Potency did it give?
The Potency was “inactive”.

Which Potency does the source give for `CC1(c2ccccc2)N(Cc2ccccc2F)C(=O)OC12CCN(Cc1cccc(O)c1)CC2` (stereo unspecified) here?
The Potency was inconclusive: 28.2 µM [inhibitor, full curve].

With `CCc1ccc(-c2nn(CC(=O)Nc3ccccc3C)c3c2cnc2ccc(C)cc23)cc1` as the molecule, how does the Potency read?
The Potency was inconclusive: 126 µM [inhibitor, partial curve, poor fit].

With `CN(CC(=O)Nc1cc(C(F)(F)F)cc(C(F)(F)F)c1)C1CCCCC1` as the molecule, how does the Potency read?
Its Potency is “inactive”.

How did the Potency turn out when `Cc1c(C(=O)OCc2ccccc2)[nH]c2c1C(=O)CC(c1ccccc1)C2` (stereo unspecified) was run?
Its Potency is “inactive”.

With `CC(NC(=O)COc1cccnc1[N+](=O)[O-])c1ccc(Cl)cc1` (stereo unspecified) as the molecule, how does the Potency read?
The Potency was inconclusive: 89.1 µM [inhibitor, partial curve, poor fit].

With `COc1ccc(NC(=O)C(C)(C)Oc2ccc(Cl)cc2)cn1` as the molecule, how does the Potency read?
Its Potency is inconclusive: 112 µM [inhibitor, single point].

`Cc1ccc(C)c(NC(=S)c2ccccn2)c1` was tested. Which Potency did it give?
The Potency was inconclusive: 5.62 µM [inhibitor, partial curve, poor fit].

Which Potency does the source give for `C/C(=N/NS(=O)(=O)c1cc(C)ccc1C)c1ccncc1` here?
Its Potency is inconclusive: 112 µM [inhibitor, partial curve, poor fit].

Which Potency does the source give for `Cc1ncc2n1C(=O)N(C1CCN(C(=O)c3ccc(F)cc3)CC1)C2` here?
Its Potency is inconclusive: 11.2 µM [inhibitor, full curve, poor fit].

How did the Potency turn out when `Cc1cc(C)nc(SCc2csc(N)n2)n1` was run?
Its Potency is inconclusive: 25.1 µM [inhibitor, single point].

Which Potency does the source give for `N/C(Cn1cncn1)=N\NC(=O)c1ccc(Cl)cc1Cl` here?
The Potency was “inactive”.

How did the Potency turn out when `CCCCNc1nc(-c2cc(C)n(NC(=O)c3n[nH]c(=O)c4ccccc34)c2C)cs1` was run?
The Potency was “inactive”.

`COc1ccc(C(=O)c2c(N)sc3c2CCN(C(=O)OC(C)(C)C)C3)cc1` was tested. Which Potency did it give?
Its Potency is inconclusive: 158 µM [inhibitor, single point].

Which Potency does the source give for `O=C(C[C@H]1CC[C@@H]2[C@H](COC[C@@H](O)CN2Cc2cccc(F)c2)O1)NCC1CCCCC1` here?
The Potency was inconclusive: 44.7 µM [inhibitor, partial curve, poor fit].

`COc1ccc(S(=O)(=O)c2c(SC)nn(CC(=O)Nc3cccc(C)c3C)c2N)cc1` was tested. Which Potency did it give?
The Potency was inconclusive: 178 µM [inhibitor, single point].

How did the Potency turn out when `O=C1NCCC[C@@H]1NC(=O)[C@@H]1CN(C(=O)C2CCNCC2)CCN1C(=O)c1ccccc1` was run?
The Potency was “inactive”.

How did the Potency turn out when `O=S(=O)(c1ccccc1)c1nc(-c2cccs2)oc1NCCCn1ccnc1` was run?
Its Potency is inconclusive: 50.1 µM [inhibitor, single point].

With `Cc1c(-c2ccccc2)nc2ccc(Br)cc2c1C(=O)O` as the molecule, how does the Potency read?
Its Potency is inconclusive: 0.631 µM [inhibitor, full curve, poor fit].

How did the Potency turn out when `CCN1/C(=C/c2ccc3ccccc3[n+]2CC)C=Cc2ccccc21` was run?
Its Potency is inconclusive: 35.5 µM [inhibitor, partial curve, poor fit].

`O=S(=O)(NCc1cc(-c2ccccc2Cl)no1)c1ccc(Cl)cc1` was tested. Which Potency did it give?
The Potency was inconclusive: 126 µM [inhibitor, single point].

For `Cc1ccc(C2Nc3ccccc3C(=O)N2CCN2CCNC2=O)cc1` (stereo unspecified), which Potency is on record?
The Potency was inconclusive: 126 µM [inhibitor, partial curve, poor fit].

For `Cc1ccc(C)c(OCC(O)CN2C(C)CCCC2C)c1` (stereo unspecified), which Potency is on record?
The Potency was “inactive”.

How did the Potency turn out when `CCN1CCN(c2nc3c(C)cccn3c(=O)c2/C=C(\C#N)S(=O)(=O)c2ccc(C)cc2)CC1` was run?
The Potency was inconclusive: 8.91 µM [inhibitor, partial curve].

Which Potency does the source give for `O=C(NCc1ccc2c(c1)OCO2)c1cc(-n2cnnc2)ccc1Cl` here?
Its Potency is inconclusive: 2 µM [inhibitor, full curve, poor fit].

With `O=C1c2ccccc2C(=O)N1CCCCN(C(=O)c1cccc([N+](=O)[O-])c1)c1ccc(Cl)cc1` as the molecule, how does the Potency read?
The Potency was “inactive”.

How did the Potency turn out when `Cc1nc2cnc(N(C)C)nc2n(CCc2ccccc2)c1=O` was run?
The Potency was inconclusive: 35.5 µM [inhibitor, partial curve, poor fit].

For `N#Cc1ccc(-c2ccc(OC(=O)CCC(=O)c3cccs3)cc2)cc1`, which Potency is on record?
The Potency was inconclusive: 2.82 µM [inhibitor, full curve, poor fit].

Which Potency does the source give for `CC(C)CC(=O)N1CCC(N2CCN(c3ccccc3)CC2)CC1` here?
The Potency was inconclusive: 0.355 µM [inhibitor, full curve, poor fit].

With `O=C(Nc1ccc(Cc2ccc(NC(=O)C3CC3)cc2)cc1)C1CC1` as the molecule, how does the Potency read?
The Potency was “inactive”.

For `Clc1cccc(CNc2ccn3nc(-c4ccc(OCCN5CCOCC5)cc4)cc3n2)c1`, which Potency is on record?
The Potency was inconclusive: 44.7 µM [inhibitor, partial curve, poor fit].

For `C=C1CC[C@H](O)C/C1=C\C=C1/CCCC2(C)C1CCC2C(C)CCCC(C)C` (stereo partly specified), which Potency is on record?
The Potency was inconclusive: 35.5 µM [inhibitor, partial curve, poor fit].

For `Cc1cc(NC(=O)C2CCCN(S(=O)(=O)c3ccc4[nH]c(=O)oc4c3)C2)ccc1Br` (stereo unspecified), which Potency is on record?
Its Potency is inconclusive: 31.6 µM [inhibitor, partial curve, poor fit].

`CCOC(=O)C1=C(O)/C(=C\c2ccc(CNC(=O)C(=O)Nc3ccccc3)o2)N=C1C` was tested. Which Potency did it give?
Its Potency is inconclusive: 17.8 µM [inhibitor, single point].

For `COc1ccccc1Cn1c(-c2ccc(Cl)cc2)nc(C)c(CCO)c1=O`, which Potency is on record?
Its Potency is inconclusive: 10 µM [inhibitor, full curve].

For `CC(C)OC(=O)c1cn(Cc2c(F)cccc2F)c2sc(-c3ccc(NC(=O)C(C)C)cc3)c(CN(C)Cc3ccccc3)c2c1=O`, which Potency is on record?
The Potency was “inactive”.

`Cn1c(=O)c2c(nc(Cl)n2CCOc2ccccc2)n(C)c1=O` was tested. Which Potency did it give?
The Potency was inconclusive: 31.6 µM [inhibitor, partial curve, poor fit].

With `COC(=O)c1ccc(C(=O)NCCc2ccccc2)cc1` as the molecule, how does the Potency read?
The Potency was “inactive”.

For `O=S(=O)(c1ccc(Cl)cc1)c1cc(O)ccc1O`, which Potency is on record?
Its Potency is “inactive”.

For `CN1CCN(c2ccc(NC(=O)c3ccccc3F)nc2)CC1`, which Potency is on record?
Its Potency is “inactive”.

For `CC(=O)N/N=C(/C)c1ccc(NC(=O)C2CC2)cc1`, which Potency is on record?
The Potency was inconclusive: 50.1 µM [inhibitor, partial curve, poor fit].

`COc1ccc(/C(C)=C(\C#N)c2nc3ccccc3[nH]2)cc1` was tested. Which Potency did it give?
Its Potency is inconclusive: 50.1 µM [inhibitor, partial curve, poor fit].

With `Nc1nnnn1NCc1ccc(-c2ccc(F)c(Cl)c2)o1` as the molecule, how does the Potency read?
Its Potency is inconclusive: 39.8 µM [inhibitor, partial curve, poor fit].

Which Potency does the source give for `CCc1ccc(CN(Cc2ccco2)C(=O)COc2ccc(Cl)c(C)c2)cc1` here?
The Potency was inconclusive: 100 µM [inhibitor, partial curve, poor fit].

For `CC(C)Oc1ccccc1C1Nc2ccccc2C(=O)N1c1ccc2c(c1)OCCO2` (stereo unspecified), which Potency is on record?
The Potency was “inactive”.

`Nc1c2c(nc3sc4c(c13)CCCC4)CCCCCC2` was tested. Which Potency did it give?
Its Potency is “inactive”.

Which Potency does the source give for `CC(C)n1c(/N=C/c2c[nH]c3ccccc23)nc2ccccc21` here?
Its Potency is inconclusive: 44.7 µM [inhibitor, partial curve].
